# At least one structure is not confirmed: it was looked up by name or label, or the drawing left a doubt.
# Biological target: T1, C-terminal α-amidating enzyme AE-I (Xenopus laevis, UniProt P08478)
# T1 construct: C-terminal α-amidating enzymes of the present invention can be extracted from the skin of Xenopus laevis; from tissue; host or cells: Xenopus laevis skin
# T1 sequence (P08478 37-400 isoform P08478-2 limits assumed): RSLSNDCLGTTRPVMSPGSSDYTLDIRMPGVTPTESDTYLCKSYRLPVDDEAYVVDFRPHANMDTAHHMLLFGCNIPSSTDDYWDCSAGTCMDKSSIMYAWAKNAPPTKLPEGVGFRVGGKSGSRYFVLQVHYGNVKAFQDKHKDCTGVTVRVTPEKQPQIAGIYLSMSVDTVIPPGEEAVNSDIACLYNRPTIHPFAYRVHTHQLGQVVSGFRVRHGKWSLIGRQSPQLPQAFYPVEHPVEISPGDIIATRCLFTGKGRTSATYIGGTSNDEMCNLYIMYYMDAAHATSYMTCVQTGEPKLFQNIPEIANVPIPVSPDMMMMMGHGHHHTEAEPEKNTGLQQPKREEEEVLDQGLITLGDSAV
# Assay: Effect of substances on enzyme activity of AE-I
# Format: biochemical
# Conditions: ascorbate in reaction mixture
# Experimental: C-terminal α-amidating enzyme of the present invention is assayed using synthetic peptide [^125 I]-Ac-Tyr-Phe-Gly as a substitute according to the following procedure. [^125 I]-Ac-Tyr-Phe-Gly (1 pmole, 70,000-150,000 cpm) was incubated with an enzyme preparation, in a final volume of 250 μl containing 0.2M Tris-HCl buffer (pH 7.0), 2 μM CuSo4, 0.25 mM ascorbic acid, 25 μg catalase (Boehringer), 0.1% Lubrol (PX type, Nakarai Chemicals). The reaction mixture was kept at 37° C. for 1 to 4 hours. Then 0.75 ml of 1M Tris-HCl buffer (pH 7.0) and 2 ml of the organic phase of an ethyl acetate/water mixture was added. Two phases were mixed vigorously on a Vortex mixer. After centrifugation at 3000 rpm for 3 min, the organic phase thus separated was transferred to another test tube. The radioactivity in organic and aqueous layers was each measured by a gamma scintillation counter. […] The yield of conversion was calculated from the ratio of the radioactivity in ethyl acetate phase to the total radioactivity. In this assay, one unit is defined as an amount of enzyme which converts 50% of added substrate [^125 I]-Ac-Try-Phe-Gly to [^125 I]-Ac-Tyr-Phe-NH2.
smiles,measurement,value
O=C1O[C@H]([C@@H](O)CO)C(O)=C1O [ascorbate],Requirement of ascorbate for enzyme activity,lower enzyme activity unless ascorbate is present

# Reference: US4921797A, “C-terminal alpha-amidating enzyme and process for production and use thereof” (Hisayuki Matsuo, priority 1986, dated 1990)
